Experimental findings from PMC7819943, “Rice protein-binding microarrays: a tool to detect cis-acting elements near promoter regions in rice” are described below.

The other results are listed elsewhere or left out.

The assay addresses T1, OsSMF1 (Oryza sativa, UniProt Q6ZLB0 1-436).
T1 sequence: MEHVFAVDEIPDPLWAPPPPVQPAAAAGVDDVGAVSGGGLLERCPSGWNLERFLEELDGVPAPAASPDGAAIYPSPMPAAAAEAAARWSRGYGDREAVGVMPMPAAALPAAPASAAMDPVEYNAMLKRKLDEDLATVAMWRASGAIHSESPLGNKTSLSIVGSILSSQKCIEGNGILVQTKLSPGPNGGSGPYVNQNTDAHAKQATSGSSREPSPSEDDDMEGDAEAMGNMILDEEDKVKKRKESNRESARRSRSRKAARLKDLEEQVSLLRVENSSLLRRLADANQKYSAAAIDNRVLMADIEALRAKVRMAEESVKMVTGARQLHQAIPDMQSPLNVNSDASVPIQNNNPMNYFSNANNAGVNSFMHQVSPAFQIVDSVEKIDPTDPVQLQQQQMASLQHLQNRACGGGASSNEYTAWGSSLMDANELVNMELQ
Briefly: protein-binding microarray (RPBM); PBS, 2% BSA, 51.3 ng/ul salmon testes DNA, 50 uM zinc acetate, 200 nM TF, 25 C, 1 h; high values mean tight binding. Particulars: protein: recombinant; tags: N-terminal polyhistidine and DsRed monomer fusion (pET32a); chain copies: 2; label: CyDye5-dUTP incorporated in the synthesized complementary strand; 3' TTTTT single-stranded linker to array surface; dsDNA, one strand shown. The procedure, abridged:
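In PBS with 2% BSA, salmon testes DNA and 50 µM zinc acetate, 200 nM protein was incubated on a custom Agilent array at 25 °C for 1 h and then washed off. The array had been made double-stranded by primer extension with Cy5-dUTP and blocked with 2% BSA. The proteins were transcription factors fused N-terminally to polyhistidine and DsRed, expressed in E. coli BL21-CodonPlus and purified on Ni–NTA. The binding signal is per-feature fluorescence intensity (arbitrary units) from an Axon 4000B scanner.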
Consider “ACGTACGTGTGCGTATCCGACAAGTCCCACGACGTGGCAACGGAGTCACCTAGTGCAG”, for which the binding signal is 4960 fluorescence intensity (a.u.).
With “CCTTCAGAAGCTGTGTAAAGATTTGTGTGTGTTAGTACCACGGAGTCACCTAGTGCAG”, the binding signal is 3330 fluorescence intensity (a.u.).
For “TTTAGCTCTCGTCGATGTGGTGTTTGTTGGGTTTTCCCTTCGGAGTCACCTAGTGCAG”, the binding signal was 3670 fluorescence intensity (a.u.).
For “CTACAAGAAGCCTCTCTCTGGCCTGTGCTGCATTGGCCTCCGGAGTCACCTAGTGCAG”, the binding signal is 3150 fluorescence intensity (a.u.).
As to “ATGCTAATATTGTTTTCCTTTTCAGGAGTGTTCTCATACTCGGAGTCACCTAGTGCAG”, the binding signal is 3560 fluorescence intensity (a.u.).
For the sequence “ACATATAATAATACATATAGTAATATAATTTTCAGCTTATCGGAGTCACCTAGTGCAG”, the binding signal is 3210 fluorescence intensity (a.u.).
With “TGTGTCCATGACCCGTCGTACAATTGGTTTGAAACTTGTGCGGAGTCACCTAGTGCAG”, the binding signal was 3320 fluorescence intensity (a.u.).
As for “AAGAGGATCGCAATCGTGAAAACTTCGCAAGTGTTCAGAACGGAGTCACCTAGTGCAG”, the binding signal is 59100 fluorescence intensity (a.u.).
On to “CTTAGCATAAGCACAATTTCCATTGCGTGTAATTATTTTGCGGAGTCACCTAGTGCAG”, for which the binding signal is 5530 fluorescence intensity (a.u.).
With “TATTGTGCTGACGCAGTGCAGATTATACGTAAGGCATTTTCGGAGTCACCTAGTGCAG”, the binding signal is 4220 fluorescence intensity (a.u.).
As to “GCAAAGTTTGTATACACGTATGCAATGTTTGTATACATGTCGGAGTCACCTAGTGCAG”, the binding signal was 4420 fluorescence intensity (a.u.).
For “AAGCATCCTGCATTCACCTACGTCAACATGCATGCATGACCGGAGTCACCTAGTGCAG”, the binding signal was 3870 fluorescence intensity (a.u.).
In the case of “TGAGCTGCTTTTACACGTTGCTTTATTGACACTTGTTCACCGGAGTCACCTAGTGCAG”, the binding signal is 45500 fluorescence intensity (a.u.).
For “ACTAGAATCTCACACATGACACATCCATCACATCACACACCGGAGTCACCTAGTGCAG” the value was 4690 fluorescence intensity (a.u.); for “CTTGAAACGAACATAGCCACGTCGACGTGTTTCAAATTCCCGGAGTCACCTAGTGCAG”, 15100 fluorescence intensity (a.u.).
For “CGACGAGAAGGACACCTCCTCGGAAAAGGGAGGGCGTCGGCGGAGTCACCTAGTGCAG” the value was 44600 fluorescence intensity (a.u.).
Take “GGTAAGCATCATACTGTTCGTTGTTGACTCAATGATCATCCGGAGTCACCTAGTGCAG”: the binding signal is 3580 fluorescence intensity (a.u.).
Consider “ATCGTTCTGTACCCGGGCCTCTACGTCAGCCACTTCGTCCCGGAGTCACCTAGTGCAG”, for which the binding signal was 9600 fluorescence intensity (a.u.).
“TCCCTGAAGTCGATATCTGACGTCTTGTCTTGGCGTATGTCGGAGTCACCTAGTGCAG”: the binding signal is 4340 fluorescence intensity (a.u.).
For “TTGTAGCTCTACACATCATGCTATGCTAAACAACCTACTCCGGAGTCACCTAGTGCAG” the value was 3140 fluorescence intensity (a.u.).
With “GACATGGAGGCTGACGCCGCCTACGACGCCGGGTTCAACGCGGAGTCACCTAGTGCAG”, the binding signal is 4170 fluorescence intensity (a.u.).
As to “GCTGGCTGCTTGCTCTACTGCAATTATTTATTGCCACCTCCGGAGTCACCTAGTGCAG”, the binding signal is 3220 fluorescence intensity (a.u.).
“CCACTGGCGACCGCCACGTCGACCTGGCGTGGGACCTCATCGGAGTCACCTAGTGCAG”: the binding signal is 8920 fluorescence intensity (a.u.).
For “CGAACCGATGGTTGTGATTGTACGTGTCTACCTGATACGTCGGAGTCACCTAGTGCAG” the value was 5940 fluorescence intensity (a.u.); for “GGTTGGAGGAAGAGGAGGAGCGGAGGAGATCCCCAACCACCGGAGTCACCTAGTGCAG”, 3200 fluorescence intensity (a.u.); for “GATCAATAGATAAATGCGTCCTCCGTATCTTCAGCAAATCCGGAGTCACCTAGTGCAG”, 3660 fluorescence intensity (a.u.).
As to “AACCCGCGGGCCGCCGCCGCCGCCACCGCCGCCGCCGATTCGGAGTCACCTAGTGCAG”, the binding signal is 3340 fluorescence intensity (a.u.).
Take “TGAGGATCTACATGGACACTGCCGTCGTCGTGGTGCTGTCCGGAGTCACCTAGTGCAG”: the binding signal was 3740 fluorescence intensity (a.u.).
Turning to “AATCAAGAGCGGTTTTATCCTATGTGGCGTACGCGTGGCACGGAGTCACCTAGTGCAG”, the binding signal is 14900 fluorescence intensity (a.u.).
On to “GATCGGCCGACGTGGCCTCGCCGGAGACGGTTGATGCGAGCGGAGTCACCTAGTGCAG”, for which the binding signal was 6360 fluorescence intensity (a.u.).
For “CCACCGCCTCGTTGCTGCCGTCACCAACCCACCACCAGAACGGAGTCACCTAGTGCAG” the value was 3570 fluorescence intensity (a.u.); for “CGTAGGCTCGTCGCGGCCACGTACGCCATCCCGAGCTCGGCGGAGTCACCTAGTGCAG”, 6280 fluorescence intensity (a.u.).
Consider “ATTGTTTTGGAGTGACAAAGTTGCTTAATTTTGGTGAATGCGGAGTCACCTAGTGCAG”, for which the binding signal was 3820 fluorescence intensity (a.u.).
For “TGTGCTCCCTTCGTGGCGGCGACGCCGACGAGGCGTACGCCGGAGTCACCTAGTGCAG” the value was 3970 fluorescence intensity (a.u.); for “GAATTTTCACGTTAGTGCCACATGTATGTCACGTAGGATCCGGAGTCACCTAGTGCAG”, 4570 fluorescence intensity (a.u.); for “ATAGGTTTCCTCTCCACCTCCAGCCCGGACTCTCCCGATCCGGAGTCACCTAGTGCAG”, 3150 fluorescence intensity (a.u.).
Consider “GCGGGTCCCCTAAGTGCCACATAGGATGAAACCGCTATCACGGAGTCACCTAGTGCAG”, for which the binding signal was 4340 fluorescence intensity (a.u.).
“TTGAAATGTTTAAGTTGTTTTAAAATTATTCTATATATTTCGGAGTCACCTAGTGCAG”: the binding signal is 37800 fluorescence intensity (a.u.).
On to “TATACGTTAATACATATATTGTTTTACGTGTCGAAGAGGACGGAGTCACCTAGTGCAG”, for which the binding signal is 4040 fluorescence intensity (a.u.).
For “AATGTTTGGGTTCGAATTTAGTGGGTGGGTTTGGAGTTTGCGGAGTCACCTAGTGCAG” the value was 4670 fluorescence intensity (a.u.); for “CAGAAGTTTCAAGAAAAGAATGACTAGGTGAAGCCATCACCGGAGTCACCTAGTGCAG”, 3220 fluorescence intensity (a.u.).
For “CCACCGGCCACCTCGTCACCACCTCCCCGCGCCAGCAGCCCGGAGTCACCTAGTGCAG” the value was 6030 fluorescence intensity (a.u.).
